From publication PMC4019584
No constants are given. Whether binding was seen depends on the method and setting. Some binding calls cover weakened binding; strength is not graded here.

Biological target: T1, NF-κB p50 (human (endogenous in AGS)), P19838
T1 chain: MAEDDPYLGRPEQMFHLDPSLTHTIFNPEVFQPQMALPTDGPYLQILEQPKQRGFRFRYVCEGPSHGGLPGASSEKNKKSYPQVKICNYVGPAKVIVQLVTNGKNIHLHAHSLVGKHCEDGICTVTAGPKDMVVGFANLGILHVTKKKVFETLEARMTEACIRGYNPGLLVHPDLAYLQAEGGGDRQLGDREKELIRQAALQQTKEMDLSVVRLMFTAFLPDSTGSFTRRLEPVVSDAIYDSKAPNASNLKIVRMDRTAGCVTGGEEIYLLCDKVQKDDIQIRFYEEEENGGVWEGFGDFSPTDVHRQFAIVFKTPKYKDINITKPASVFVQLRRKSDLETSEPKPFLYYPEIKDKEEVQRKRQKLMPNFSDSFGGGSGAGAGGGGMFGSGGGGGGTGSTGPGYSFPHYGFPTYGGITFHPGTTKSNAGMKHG
Experiment: native gel or EMSA; supershift: nuclear extracts (10 µg) of H. pylori-infected AGS cells with a 32P-labelled probe of the NF-κB site of the CCL20 promoter and 0.4 µg antibody to p65 or p50, room temperature, 6% native polyacrylamide gel in TGE buffer
Settings: remark: other sources report otherwise

B1: NF-κB p50, P19838 1-433 (protein)
chain: MAEDDPYLGRPEQMFHLDPSLTHTIFNPEVFQPQMALPTDGPYLQILEQPKQRGFRFRYVCEGPSHGGLPGASSEKNKKSYPQVKICNYVGPAKVIVQLVTNGKNIHLHAHSLVGKHCEDGICTVTAGPKDMVVGFANLGILHVTKKKVFETLEARMTEACIRGYNPGLLVHPDLAYLQAEGGGDRQLGDREKELIRQAALQQTKEMDLSVVRLMFTAFLPDSTGSFTRRLEPVVSDAIYDSKAPNASNLKIVRMDRTAGCVTGGEEIYLLCDKVQKDDIQIRFYEEEENGGVWEGFGDFSPTDVHRQFAIVFKTPKYKDINITKPASVFVQLRRKSDLETSEPKPFLYYPEIKDKEEVQRKRQKLMPNFSDSFGGGSGAGAGGGGMFGSGGGGGGTGSTGPGYSFPHYGFPTYGGITFHPGTTKSNAGMKHG
binding: binds
